Data source: PubChem BioAssay AID743454 (Peter MacCallum Cancer Centre, 2014)
Aim: 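Search for knock-downs that restore vorinostat killing in resistant colon cancer cells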 (primary screen). System: human HCT116-VR colon cancer cells, selected for vorinostat resistance. Knock-down reagent: siRNA pool against human genes, 40 nM siRNA pool. Time to read-out: vorinostat for 24 h, read-out about 72 h after transfection. Treatment: vorinostat at 2.5 µM final. Measured: 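Cell viability by CellTiter-Fluor and caspase 3/7 activity by luminescence, each scaled to mock wells per plate, duplicates averaged, then robust z-scored over all plates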. Scale: viability robust z-score: higher = more viable cells than screen typical; caspase robust z-score: higher = more caspase 3/7 activity than screen typical. Hit rule: 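Hits are knock-downs in viability class RV1/RV2 or caspase class CA1/CA2, excluding ones that killed cells in the no-drug cell-count arm; hits then retested with single siRNAs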.
Shown is an unselected part of about 18,000 reagents tested. Of all reagents, 450 (2.5%) got an active call. 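Single biological run; no consistent viability z cut-off exists, so the class columns, not z-scores, define the calls.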

Gene	viability hit class	caspase hit class	viability robust z-score	caspase robust z-score	Call
CHTF8 (GeneID 54921)	no change	no change	0.52	-0.57	inactive
ZNF93 (GeneID 81931)	no change	no change	0.46	0.5	inactive
ARIH1 (GeneID 25820)	no change	no change	0.06	-0.72	inactive
STYX (GeneID 6815)	no change	no change	0.24	-0.55	inactive
CLDN10 (GeneID 9071)	no change	no change	1.6	0.33	inactive
ALS2 (GeneID 57679)	no change	no change	-0.04	-0.68	inactive
ZNF878 (GeneID 729747)	no change	no change	0.5	0.55	inactive
HSPBAP1 (GeneID 79663)	no change	no change	0.12	-1.03	inactive
RAB11FIP1 (GeneID 80223)	no change	no change	0.75	-0.26	inactive
ZNF532 (GeneID 55205)	no change	no change	-2.21	-1.72	inactive
TICAM2 (GeneID 353376)	no change	no change	-0.66	-0.42	inactive
ABT1 (GeneID 29777)	no change	no change	0.38	0.52	inactive
PRCD (GeneID 768206)	no change	no change	2.27	-0.98	inactive
TAS2R8 (GeneID 50836)	no change	no change	-0.23	0.34	inactive
OR6Y1 (GeneID 391112)	no change	no change	-0.93	-0.74	inactive
CARNMT1 (GeneID 138199)	no change	no change	0	-0.36	inactive
TGM3 (GeneID 7053)	no change	no change	-0.08	-0.47	inactive
LATS1 (GeneID 9113)	no change	no change	0.32	-0.52	inactive
RNF25 (GeneID 64320)	no change	no change	-0.14	2	inactive
KCNN1 (GeneID 3780)	no change	no change	0.54	3.7	inactive
DGCR6L (GeneID 85359)	no change	no change	1.28	1.12	inactive
TLE5 (GeneID 166)	no change	no change	1.02	-0.13	inactive
SLC6A18 (GeneID 348932)	no change	no change	-1.32	0.17	inactive
NUDT17 (GeneID 200035)	no change	no change	0.94	-0.9	inactive
DDX12P (GeneID 440081)	no change	no change	0.15	-0.55	inactive
TMEM187 (GeneID 8269)	no change	no change	-0.08	1.29	inactive
RMI1 (GeneID 80010)	no change	no change	-0.12	-0.68	inactive
YY1AP1 (GeneID 55249)	no change	no change	-0.02	2.14	inactive
FHL3 (GeneID 2275)	no change	no change	-0.27	-0.4	inactive
ZDHHC21 (GeneID 340481)	no change	no change	1.4	-0.78	inactive
TRPC4AP (GeneID 26133)	no change	no change	1.07	-0.44	inactive
PPT1 (GeneID 5538)	no change	no change	1.27	-0.24	inactive
NTRK3 (GeneID 4916)	no change	no change	1.64	-0.09	inactive
DLGAP3 (GeneID 58512)	no change	no change	0.01	0	inactive
SGIP1 (GeneID 84251)	no change	no change	0.96	0.02	inactive
NXPH2 (GeneID 11249)	no change	no change	-0.22	0.18	inactive
SBNO1 (GeneID 55206)	no change	no change	-0.11	-0.76	inactive
CRISP1 (GeneID 167)	no change	no change	0.48	-0.3	inactive
ABCD3 (GeneID 5825)	no change	no change	-0.56	0.26	inactive

Records above whose gene name begins with C or c (4):
Gene	viability hit class	caspase hit class	viability robust z-score	caspase robust z-score	Call
CHTF8 (GeneID 54921)	no change	no change	0.52	-0.57	inactive
CLDN10 (GeneID 9071)	no change	no change	1.6	0.33	inactive
CARNMT1 (GeneID 138199)	no change	no change	0	-0.36	inactive
CRISP1 (GeneID 167)	no change	no change	0.48	-0.3	inactive
